Reference: patent US20190300618A1 (Merck Sharp & Dohme, published 2019)
Results are given in words; binding and its absence hold for the method and conditions named. Some results given as binding are weak or reduced against the parent protein; the word gives no strength.

Sequences of proteins named here, by UniProt entry; tags and fusion partners are left off. A change or cut given only in a name is not applied to a line headed by its entry.
UniProt P26842: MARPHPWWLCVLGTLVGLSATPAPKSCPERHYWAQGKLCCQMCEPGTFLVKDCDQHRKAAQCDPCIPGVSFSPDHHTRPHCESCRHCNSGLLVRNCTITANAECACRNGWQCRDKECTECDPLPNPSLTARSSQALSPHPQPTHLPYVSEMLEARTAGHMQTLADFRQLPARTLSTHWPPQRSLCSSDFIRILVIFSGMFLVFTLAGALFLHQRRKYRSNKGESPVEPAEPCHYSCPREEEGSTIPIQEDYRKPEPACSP

Molecular target: human CD27 (wild type), expressed on cells (human) (UniProt P26842)
Test: flow cytometry, transiently transfected CHO-K1

B1: chimeric hCD27.15-c4 (antibody, human IgG4 S228P, kappa, V domains shown)
VH: EVRLQQSGADLVKPGASVKLSCTASGFIIKATYMHWVRQRPEQGLEWIGRIDPANGETKYDPKFQVKATITADTSSSTAYLQLNSLTSDDTAVYYCARYAWYFDVWGAGTTVTVSS
VL: DIQMTQSPASLSASVGDTVTITCRASENIYSFLAWYHQKQGRSPQLLVYHAKTLAEGVPSRFSGSGSGTQFSLKINSLQAEDFGSYYCQHYYGSPLTFGAGTKLEVKR
  binding: binds
